Measurements taken from PubChem BioAssay AID493014 (National Center for Advancing Translational Sciences (NCATS), 2011).
The list shows a part of the results. The main result of the screen is listed elsewhere. These columns were measured beside it and carry no call. Most of these compounds were active or inconclusive in the main read-out, so they are no random draw. Words in brackets tell the shape of the fitted curve; partial curves, single points and poor fits give uncertain potencies.

Assay: qHTS Assay to Find Inhibitors of Chronic Active B-Cell Receptor Signaling
Settings: ABC-DLBCL IkBa-CBG/CBR reporter, luminescence ratio (green luciferase fused to IkBa over red control in TMD8 lymphoma cells), 4 h
In short: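 Concentration-response series (up to 46 uM) were applied to TMD8 dual-reporter cells for 4 h at 37C with doxycycline. Green/red ratio, after filter-overlap correction, defined %Activity; red signal alone was normalised to basal cells and zero luminescence.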

[1] = measured here: CBR red luminescence, cell number
[2] = measured here: IkBa-CBG green luminescence

SMILES | AC50 [1] | AC50 [2]
Cc1ccc(C(=O)O)cc1NC(=O)c1cccs1 | 6.51 µM [falling, single point] | 
O=C(Nc1ccc2c(c1)OCCO2)c1cccc(C(=O)Nc2ccc3c(c2)OCCO3)c1 | 35.5 µM [falling, single point] | 
O=C(COC(=O)/C=C/c1cccc(F)c1)Nc1ncccn1 | 0.708 µM [rising, full curve, poor fit] | 
O=C(CN(C(=O)CCC(=O)Nc1nccs1)c1ccccc1F)NCCc1ccccc1 |  | 14.1 µM [rising, partial curve, poor fit]
O=C(CN1C2=NCCN2c2ccccc21)c1ccc(Br)cc1 | 14.1 µM [falling, single point] | 
O=C(Cc1ccccc1)NCc1ccc2c(c1)OCO2 | 16.4 µM [falling, single point] | 
O=C(COC(=O)/C=C/c1ccc(OC(F)F)cc1)NC1CCCCC1 | 0.00461 µM [rising, full curve, poor fit] | 
COc1ccc(C2=NOC(C(=O)NCc3ccco3)C2)cc1 (stereo not drawn) |  | 29.1 µM [falling, single point]
COc1ccc(C(C)=O)cc1CSc1nc(NCCc2ccccc2)c2ccccc2n1 | 6.31 µM [rising, single point] | 
COCCNCCCCOc1ccc(Br)cc1C | 16.4 µM [falling, single point] | 
CC1CCCN(C(=O)c2ccc(S(=O)(=O)Nc3ccccc3Cl)cc2)C1 (stereo not drawn) | 0.251 µM [rising, full curve, poor fit] | 
COc1ccc(CCNC(=O)Nc2ccccc2[N+](=O)[O-])cc1 | 35.5 µM [falling, partial curve, poor fit] | 
COc1cccc(OCc2nc3ncc(Br)cc3[nH]2)c1 | 1.3 µM [rising, partial curve] | 
CC1(C)CNC(=O)c2sc(NC(=O)c3ccccc3Cl)nc2C1 | 6.31 µM [falling, partial curve] | 
FC(F)(F)c1cccc(-c2nn[nH]n2)c1 | 2.51 µM [rising, full curve, poor fit] | 
COc1ccc2nc(SC)c(C#N)cc2c1 | 35.5 µM [falling, single point] | 
COc1ccc(Cl)cc1NC(=O)NCC1CCN(Cc2cc(C)ccc2C)CC1 | 25.1 µM [falling, single point] | 
O=C(Nc1nc(COc2ccccc2)cs1)C1CCC1 | 0.651 µM [rising, full curve, poor fit] | 
Cc1cccc(CCNC(=O)C2CCN(S(=O)(=O)c3c(C)noc3C)CC2)c1 | 0.517 µM [falling, full curve, poor fit] | 
COc1ccc2nc(Cl)c(C#N)cc2c1 |  | 11.2 µM [rising, partial curve, poor fit]
Cc1cccc(NC(=O)NCc2ccc3c(c2)cc(C)n3C)c1 | 23.1 µM [rising, partial curve, poor fit] | 
CC(/C=C\c1ccccc1)=C/C(=O)O | 4.47 µM [rising, full curve, poor fit] | 

SMILES | AC50 [1] | AC50 [2]
Cc1ccc(S(=O)(=O)CCC(=O)Nc2ccccc2C)cc1 | 28.2 µM [falling, single point] | 
CC(C)c1ccc(CN2CC(C(=O)Nc3ccccc3)CC2=O)cc1 (stereo not drawn) | 35.5 µM [falling, partial curve, poor fit] | 
C=CC[C@H](CC(=O)N(CCO)Cc1ccccc1)C(=O)N[C@H](COC(=O)[C@@H](CC=C)CC(=O)OC(C)(C)C)c1ccccc1 | 14.6 µM [falling, single point] | 
O=[N+]([O-])c1nn(-c2ccc3c(c2)OCCO3)n(O)c1=NC1CCCC1 | 0.058 µM [falling, full curve, poor fit] | 
COc1cc(Nc2cc(C)nc3ncnn23)cc(OC)c1 | 29.1 µM [rising, partial curve, poor fit] | 
COC(=O)c1ccc(C(=O)Nc2nc3cc(N)c(C)cc3s2)cc1 | 0.1 µM [falling, full curve, poor fit] | 
Cc1nc2ccc(N3C(=O)CCC3=O)cc2[nH]1 | 16.4 µM [rising, single point] | 
C=CCn1c(-c2ccc(OC)cc2)nc2nc3ccccc3nc21 |  | 20.6 µM [rising, partial curve, poor fit]
Cc1ccc(-c2c(C(=O)N/N=C/c3cccs3)nnn2-c2nonc2N)cc1 | 14.1 µM [falling, single point] | 
CC(=O)Nc1ccc(/C=N/NC(=O)c2cccs2)cc1 | 11.2 µM [falling, partial curve] | 
Cc1occc1C(=O)NNC(=S)NCc1ccc(Cl)cc1 | 8.91 µM [falling, partial curve, poor fit] | 
COc1cc2c(cc1OC)CN(C(=O)COc1ccc(C)c(C)c1)CC2 | 32.6 µM [rising, single point] | 
COc1cccc(C(=O)Nc2nc(-c3ccc4c(c3)OCO4)cs2)c1 | 13 µM [falling, partial curve] | 
Clc1cc(Br)ccc1NCc1cccnc1 | 25.1 µM [rising, single point] | 
Cc1ccc(S(=O)(=O)NCCOc2nc(N3CCOCC3)nc(N3CCOCC3)n2)cc1 | 3.26 µM [rising, full curve] | 
Cc1ccc(CSCCC(=O)NCc2ccc(F)cc2Cl)cc1 | 1.26 µM [falling, full curve, poor fit] | 0.708 µM [rising, full curve, poor fit]
Cc1cc(/C=C2\SC(=S)N(C)C2=O)c(C)n1-c1ccc(O)cc1 | 35.5 µM [falling, single point] | 35.5 µM [rising, partial curve, poor fit]
C=CC1C(OC2OC(CO)C(O)C(O)C2O)OC=C(C(=O)OC)C1CC1CC(=O)CC(CC(=O)CCc2ccc(O)cc2)O1 (stereo not drawn) | 3.16 µM [rising, single point] | 
O=S(=O)(NCC(c1ccco1)S(=O)(=O)c1cccs1)c1ccc(Cl)cc1 (stereo not drawn) | 12.6 µM [falling, partial curve, poor fit] | 
CC(C)(C)c1cc(CN2CCN(CCO)CC2)cc(C(C)(C)C)c1O | 1.84 µM [falling, full curve] | 
O=c1o[nH]c(-c2ccccc2)c1C=Nc1ccc(Cl)cc1 | 11.2 µM [falling, partial curve, poor fit] | 
NCCCCCc1nnc(SCc2cccc(Cl)c2)o1 | 6.31 µM [falling, single point] | 

Three of these compounds in a different format.
SMILES,AC50 [1],AC50 [2]
Cc1ccc(S(=O)(=O)NCCOc2nc(N3CCOCC3)nc(N3CCOCC3)n2)cc1,"3.26 µM [rising, full curve]",
Cc1ccc(CSCCC(=O)NCc2ccc(F)cc2Cl)cc1,"1.26 µM [falling, full curve, poor fit]","0.708 µM [rising, full curve, poor fit]"
Cc1cc(/C=C2\SC(=S)N(C)C2=O)c(C)n1-c1ccc(O)cc1,"35.5 µM [falling, single point]","35.5 µM [rising, partial curve, poor fit]"

Next part.

SMILES | AC50 [1] | AC50 [2]
O=C(Nc1ccc2c(c1)OC1(CCCC1)O2)C1CC1 | 3.16 µM [rising, full curve] | 
CCOC(=O)CC(NS(=O)(=O)Cc1ccccc1)c1ccc(C)cc1 (stereo not drawn) | 16.4 µM [rising, partial curve] | 
CCOC(=S)SCc1cn2ccc(C)cc2n1 | 2.91 µM [rising, partial curve, poor fit] | 23.1 µM [falling, single point]
NC(=O)CSc1nnc(SCc2ccc(F)cc2)s1 | 35.5 µM [falling, single point] | 
O=C(NC(Cc1ccccc1)c1nc2ccccc2[nH]1)c1cccc([N+](=O)[O-])c1 (stereo not drawn) | 35.5 µM [falling, single point] | 
CCCOc1ccc(-c2c(C(=O)N/N=C/c3ccc(C)cc3)nnn2-c2nonc2N)cc1 | 1.41 µM [rising, full curve, poor fit] | 
CC(C)c1cccc(-c2ccc3c(c2)S(=O)(=O)c2cccc(C(=O)O)c2C3=O)c1 | 9.2 µM [rising, partial curve, poor fit] | 
CCN(CC)S(=O)(=O)c1cc(C(=O)NC2=NCCS2)ccc1Cl | 6.51 µM [rising, single point] | 
CCCC(=O)NC(=S)Nc1ccc(N2CCOCC2)c(Cl)c1 | 4.61 µM [rising, full curve] | 
Cc1ccc2c(c1)c(CC(=O)Nc1ccc(F)cc1)c(C(=O)O)n2C | 6.51 µM [falling, single point] | 
Cc1ccc(N2CCN(C(=O)N3CCCC3)CC2)cc1Cl | 23.1 µM [falling, single point] | 
O=C(Nc1nccs1)c1ccc(CSc2nnnn2-c2ccccc2)cc1 | 7.08 µM [falling, full curve, poor fit] | 
COc1ccc(CN=C(C#N)C2=C(O)c3ccccc3C2=O)cc1 | 12.6 µM [falling, partial curve, poor fit] | 
CCC(=O)Nc1cccc(C(=O)/C=C/c2cccs2)c1 | 17.8 µM [falling, single point] | 
O=C(OCC(=O)N1CCCCC1)c1cc2ccccc2cc1O | 17.8 µM [falling, partial curve, poor fit] | 
COc1ccc(N/C=C(\C#N)S(=O)(=O)c2ccc(OC)cc2)cc1 | 17.8 µM [rising, partial curve, poor fit] | 
COc1cccc(Oc2cnc(N)nc2-c2ccc(OC)cc2O)c1 | 23.1 µM [falling, single point] | 
O=C(Nc1ccccc1F)Nc1ccccc1OC(F)F | 15.8 µM [falling, partial curve, poor fit] | 
COc1ccc2[nH]cc(/C=C/C(=O)c3ccccc3)c2c1 | 11.2 µM [falling, single point] | 
Cc1ccccc1-c1nc(CN2CCC(C(=O)N3CCN(c4ccccn4)CC3)CC2)c(C)o1 | 0.082 µM [rising, full curve, poor fit] | 
CCOc1ccc(NC(=O)COc2ccc(C(=O)NCc3cccc(OC)c3)cc2OC)cc1 | 29.1 µM [rising, single point] | 

A different layout for 2 compounds above:
SMILES,AC50 [1],AC50 [2]
CCCOc1ccc(-c2c(C(=O)N/N=C/c3ccc(C)cc3)nnn2-c2nonc2N)cc1,"1.41 µM [rising, full curve, poor fit]",
CC(C)c1cccc(-c2ccc3c(c2)S(=O)(=O)c2cccc(C(=O)O)c2C3=O)c1,"9.2 µM [rising, partial curve, poor fit]",
